These are yes or no findings as the source states them, for the method shown. In cells and extracts the contact can be indirect. Binding calls can cover weak binding; strength is not graded here.

The chains behind the UniProt entries cited, without tags or fusion partners. Where a name states a change or a piece, a line headed by the entry shows the natural chain unless it says otherwise.
UniProt P28307: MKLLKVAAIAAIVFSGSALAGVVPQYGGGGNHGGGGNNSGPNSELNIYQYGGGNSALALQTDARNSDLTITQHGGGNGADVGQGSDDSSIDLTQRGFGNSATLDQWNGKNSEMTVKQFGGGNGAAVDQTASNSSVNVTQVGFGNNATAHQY

The target of the experiment is CsgA_(R1-5) (E. coli) (UniProt P28307). Put plainly: pull-down; pulldown assay of CsgE and CsgA_(R1-5) (Supplementary Fig. 11a); format not told.

B1: CsgE (expressed alone) (protein, UniProt P0AE95 23-129)
chain: VEVEVPGLLTDHTVSSIGHDFYRAFSDKWESDYTGNLTINERPSARWGSWITITVNQDVIFQTFLFPLKRDFEKTVVFALIQTEEALNRRQINQALLSTGDLAHDEF
B1: the binding result was “binds”.
